Results are given in words; binding and its absence hold for the method and conditions named. In cells and extracts the contact can be indirect. A yes stands for co-enrichment or nearness to the bait. Other partners may have been found.
Biological target: DDX21-BioID2-HA (human) (UniProt Q9NR30)
Experiment: proximity labelling

Protein sequences, listed by entry. Tags and fused reporters are not part of them.
UniProt Q9NR30: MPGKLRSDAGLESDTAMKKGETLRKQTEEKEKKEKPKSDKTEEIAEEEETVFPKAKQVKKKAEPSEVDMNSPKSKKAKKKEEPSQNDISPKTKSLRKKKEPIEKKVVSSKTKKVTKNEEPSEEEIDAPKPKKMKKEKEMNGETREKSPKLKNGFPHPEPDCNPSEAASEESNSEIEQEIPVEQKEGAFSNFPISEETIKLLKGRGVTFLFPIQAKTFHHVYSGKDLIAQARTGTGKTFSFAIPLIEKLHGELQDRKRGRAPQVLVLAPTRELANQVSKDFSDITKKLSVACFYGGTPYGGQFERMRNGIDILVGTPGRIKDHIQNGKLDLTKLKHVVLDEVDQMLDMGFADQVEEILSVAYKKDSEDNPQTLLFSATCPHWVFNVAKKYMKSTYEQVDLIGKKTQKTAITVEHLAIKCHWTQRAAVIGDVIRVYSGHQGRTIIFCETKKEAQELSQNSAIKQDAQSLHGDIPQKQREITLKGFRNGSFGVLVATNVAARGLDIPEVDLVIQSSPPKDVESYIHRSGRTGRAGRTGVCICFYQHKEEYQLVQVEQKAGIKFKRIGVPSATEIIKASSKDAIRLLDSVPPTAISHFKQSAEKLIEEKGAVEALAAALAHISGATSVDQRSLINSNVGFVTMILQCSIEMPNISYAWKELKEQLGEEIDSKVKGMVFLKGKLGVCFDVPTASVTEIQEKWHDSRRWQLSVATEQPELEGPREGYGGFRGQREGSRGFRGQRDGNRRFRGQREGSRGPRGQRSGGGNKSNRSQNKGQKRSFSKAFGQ
UniProt Q13547: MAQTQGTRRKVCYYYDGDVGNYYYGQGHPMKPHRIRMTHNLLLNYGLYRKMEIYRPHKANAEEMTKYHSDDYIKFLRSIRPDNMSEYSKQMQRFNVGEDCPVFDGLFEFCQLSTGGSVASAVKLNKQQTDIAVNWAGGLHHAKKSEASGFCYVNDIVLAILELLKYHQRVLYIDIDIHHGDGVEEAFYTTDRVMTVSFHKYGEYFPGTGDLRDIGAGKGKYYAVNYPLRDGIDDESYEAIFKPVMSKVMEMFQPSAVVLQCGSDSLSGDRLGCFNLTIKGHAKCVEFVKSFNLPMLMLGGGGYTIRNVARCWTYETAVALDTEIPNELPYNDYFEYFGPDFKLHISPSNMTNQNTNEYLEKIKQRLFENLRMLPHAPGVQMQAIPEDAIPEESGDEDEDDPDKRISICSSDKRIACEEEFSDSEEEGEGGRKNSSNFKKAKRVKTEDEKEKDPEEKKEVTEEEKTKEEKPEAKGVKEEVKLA
UniProt Q92769: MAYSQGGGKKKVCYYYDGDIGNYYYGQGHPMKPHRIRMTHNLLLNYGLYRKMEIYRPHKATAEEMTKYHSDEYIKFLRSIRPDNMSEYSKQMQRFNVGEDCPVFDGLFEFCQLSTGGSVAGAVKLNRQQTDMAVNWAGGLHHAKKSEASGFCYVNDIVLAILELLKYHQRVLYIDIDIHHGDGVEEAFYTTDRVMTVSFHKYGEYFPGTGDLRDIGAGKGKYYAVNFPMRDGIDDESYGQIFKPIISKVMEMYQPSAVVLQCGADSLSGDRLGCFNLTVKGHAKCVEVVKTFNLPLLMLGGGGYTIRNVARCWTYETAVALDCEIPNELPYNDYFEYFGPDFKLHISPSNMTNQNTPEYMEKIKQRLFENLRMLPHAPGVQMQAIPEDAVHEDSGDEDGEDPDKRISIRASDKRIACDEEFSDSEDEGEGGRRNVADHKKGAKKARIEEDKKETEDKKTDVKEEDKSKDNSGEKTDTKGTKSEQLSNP

Row | Substance | binding
1 | HDAC1 (endogenous) (from UniProt Q13547 1-482) (enzyme) | binds
2 | HDAC2 (endogenous) (from UniProt Q92769 1-488) (enzyme) | binds

Reference: publication doi:10.1101/2025.09.04.674186
